Measurements reported in article PMC4482694, “Machine Learning Models and Pathway Genome Data Base for Trypanosoma cruzi Drug Discovery” (PLoS Neglected Tropical Diseases, 2015).

Test system: T. cruzi CA-I/72
Test: Secondary screening (dose-response assay)
Format: cell-based, Trypanosoma cruzi
Settings: dose-response curve
Description: T. cruzi CA-I/72 trypomastigotes were obtained from C2C12 infected-culture supernatants after 4–7 days of infection. Cultures were maintained at 37°C with 5% CO2. […] Compounds were added at 10 mM in 50 nl per well using a Biomek FX (Beckman Coulter) for a final 10 μM concentration in 50 μl total volume, and 2,500 parasites were added in 10 μl per well. The plate was incubated for 72 hours at 37°C with 5% CO2. After the incubation, the plate was fixed with the addition of 50 μl of 8% paraformaldehyde solution, followed by two successive washing steps using PBS. Finally, a staining solution containing 0.5 μg/ml of 4',6-diamidino-2-phenylindole (DAPI) was added to each well of the plate and incubated for at least 4 hours prior to reading. Images were acquired by an IN Cell Analyzer 2000 (GE Healthcare) and analyzed by IN Cell Analyzer Developer 1.6 software. […] Numbers of host cells and intracellular amastigotes were determined based on host cell and parasite nucleus quantification, providing a measure of growth inhibition during the first 72 h of post-infection treatment compared to untreated controls. […] The host cell viability was assessed based on the total number of cells divided by the average number of cells from untreated controls (0.1% DMSO), being <0.5 considered a cytotoxic compound. This assay was performed in duplicate. […]

SMILES	Hill slope
COc1ccc(CCN(C)CCCC(C#N)(c2ccc(OC)c(OC)c2)C(C)C)cc1OC (racemic) [SC-0005695, (±)-Verapamil hydrochloride]	1.67
CCCCCCCCCCCCCCCC[n+]1ccccc1 [SC-0011466, cetylpyridinium chloride]	-1.22

Counter-ions that a name gives are not always drawn.
